Assay results reported in the supplement of paper PMC12819154, “High-throughput peptide-centric local stability assay extends protein–ligand identification to membrane proteins, tissues and bacteria” (Nature Structural & Molecular Biology, 2025).
Some of the results follow. Most values lie at the level of the controls, where differences are scatter.

Chains of the proteins cited; added tags and fusions are not shown. Lines headed by an entry give the natural chain unless they say otherwise; changes in a name come on top.
UniProt Q9NZ43: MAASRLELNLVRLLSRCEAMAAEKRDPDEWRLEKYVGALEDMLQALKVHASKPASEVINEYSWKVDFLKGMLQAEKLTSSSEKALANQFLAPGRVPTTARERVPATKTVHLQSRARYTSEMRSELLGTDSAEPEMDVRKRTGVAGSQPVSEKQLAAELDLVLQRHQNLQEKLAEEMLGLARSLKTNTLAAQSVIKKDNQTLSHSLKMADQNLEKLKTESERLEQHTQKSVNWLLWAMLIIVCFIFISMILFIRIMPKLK
UniProt Q9NZV7: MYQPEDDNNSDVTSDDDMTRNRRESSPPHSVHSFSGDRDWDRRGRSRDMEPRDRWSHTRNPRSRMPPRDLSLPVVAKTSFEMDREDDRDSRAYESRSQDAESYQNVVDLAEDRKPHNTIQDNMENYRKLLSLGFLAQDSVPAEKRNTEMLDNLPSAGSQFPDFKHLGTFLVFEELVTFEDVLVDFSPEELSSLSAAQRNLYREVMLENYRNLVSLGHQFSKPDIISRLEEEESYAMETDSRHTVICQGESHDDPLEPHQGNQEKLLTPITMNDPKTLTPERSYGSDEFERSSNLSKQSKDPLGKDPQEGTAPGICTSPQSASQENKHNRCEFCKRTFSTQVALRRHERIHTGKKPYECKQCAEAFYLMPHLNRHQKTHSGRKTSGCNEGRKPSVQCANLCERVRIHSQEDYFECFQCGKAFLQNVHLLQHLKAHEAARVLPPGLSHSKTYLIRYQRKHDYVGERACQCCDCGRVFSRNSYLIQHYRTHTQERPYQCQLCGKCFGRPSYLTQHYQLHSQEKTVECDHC
UniProt Q9NY12: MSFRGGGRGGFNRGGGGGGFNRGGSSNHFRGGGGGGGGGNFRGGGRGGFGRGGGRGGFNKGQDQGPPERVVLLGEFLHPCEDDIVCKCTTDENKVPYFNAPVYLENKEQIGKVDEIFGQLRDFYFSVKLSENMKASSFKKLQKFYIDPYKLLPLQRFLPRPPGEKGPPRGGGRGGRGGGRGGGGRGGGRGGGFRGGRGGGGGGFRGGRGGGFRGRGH
UniProt Q9P219: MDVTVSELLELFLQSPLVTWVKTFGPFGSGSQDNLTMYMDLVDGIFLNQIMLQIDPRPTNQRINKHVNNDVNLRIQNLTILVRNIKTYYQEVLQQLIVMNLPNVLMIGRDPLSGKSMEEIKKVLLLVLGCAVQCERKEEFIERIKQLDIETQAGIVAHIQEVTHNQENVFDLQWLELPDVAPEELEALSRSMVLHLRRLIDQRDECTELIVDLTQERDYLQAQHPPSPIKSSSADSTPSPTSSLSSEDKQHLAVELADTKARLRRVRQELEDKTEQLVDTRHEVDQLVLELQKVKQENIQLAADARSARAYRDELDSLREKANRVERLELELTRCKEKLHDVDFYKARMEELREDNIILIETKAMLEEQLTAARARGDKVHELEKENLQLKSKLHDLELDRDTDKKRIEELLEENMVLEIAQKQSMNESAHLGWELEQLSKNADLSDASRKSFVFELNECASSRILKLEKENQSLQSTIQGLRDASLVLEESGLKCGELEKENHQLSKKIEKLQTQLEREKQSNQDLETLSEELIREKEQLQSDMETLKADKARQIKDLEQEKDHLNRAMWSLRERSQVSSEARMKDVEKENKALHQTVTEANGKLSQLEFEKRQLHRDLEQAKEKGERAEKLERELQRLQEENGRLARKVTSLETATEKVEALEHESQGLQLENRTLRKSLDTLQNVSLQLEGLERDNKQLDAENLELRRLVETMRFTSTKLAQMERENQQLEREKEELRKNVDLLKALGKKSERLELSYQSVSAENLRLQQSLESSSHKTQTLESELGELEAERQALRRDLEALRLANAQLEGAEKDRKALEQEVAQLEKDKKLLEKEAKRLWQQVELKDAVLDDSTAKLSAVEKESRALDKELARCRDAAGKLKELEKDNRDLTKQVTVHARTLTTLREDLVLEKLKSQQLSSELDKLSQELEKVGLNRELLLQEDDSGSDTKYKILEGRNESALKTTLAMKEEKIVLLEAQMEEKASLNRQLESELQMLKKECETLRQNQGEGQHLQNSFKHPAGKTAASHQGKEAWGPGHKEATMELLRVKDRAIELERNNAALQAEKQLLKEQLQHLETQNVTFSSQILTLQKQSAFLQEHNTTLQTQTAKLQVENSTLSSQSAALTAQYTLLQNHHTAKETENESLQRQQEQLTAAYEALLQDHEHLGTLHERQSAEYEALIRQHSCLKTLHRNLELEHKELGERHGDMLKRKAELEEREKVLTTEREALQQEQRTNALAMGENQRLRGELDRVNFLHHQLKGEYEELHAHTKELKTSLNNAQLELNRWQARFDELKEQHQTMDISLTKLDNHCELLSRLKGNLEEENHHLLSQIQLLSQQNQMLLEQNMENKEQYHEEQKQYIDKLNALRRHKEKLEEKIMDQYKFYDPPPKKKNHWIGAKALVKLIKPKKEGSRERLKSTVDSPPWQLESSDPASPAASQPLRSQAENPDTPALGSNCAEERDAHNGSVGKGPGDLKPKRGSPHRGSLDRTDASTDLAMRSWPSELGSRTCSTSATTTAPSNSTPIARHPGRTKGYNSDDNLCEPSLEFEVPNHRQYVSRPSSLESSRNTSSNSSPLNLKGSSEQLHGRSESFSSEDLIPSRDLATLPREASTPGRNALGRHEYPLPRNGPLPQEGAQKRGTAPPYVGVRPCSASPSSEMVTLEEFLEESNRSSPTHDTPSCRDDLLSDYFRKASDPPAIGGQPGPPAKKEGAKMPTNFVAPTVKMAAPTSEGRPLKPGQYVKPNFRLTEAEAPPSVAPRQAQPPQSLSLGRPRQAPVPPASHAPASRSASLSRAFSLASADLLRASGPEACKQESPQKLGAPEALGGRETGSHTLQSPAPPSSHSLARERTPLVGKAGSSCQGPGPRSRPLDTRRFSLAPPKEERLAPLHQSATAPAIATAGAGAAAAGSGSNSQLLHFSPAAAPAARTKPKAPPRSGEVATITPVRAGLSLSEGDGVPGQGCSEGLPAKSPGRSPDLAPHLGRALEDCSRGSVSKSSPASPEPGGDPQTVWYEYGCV
UniProt Q9P016: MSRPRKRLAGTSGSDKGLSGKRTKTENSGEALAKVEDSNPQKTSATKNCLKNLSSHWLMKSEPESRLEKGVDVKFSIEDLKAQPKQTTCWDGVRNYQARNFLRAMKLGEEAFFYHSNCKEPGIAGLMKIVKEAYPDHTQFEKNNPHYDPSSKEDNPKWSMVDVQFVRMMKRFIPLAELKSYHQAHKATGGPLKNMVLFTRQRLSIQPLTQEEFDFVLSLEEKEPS
UniProt Q9UBF8: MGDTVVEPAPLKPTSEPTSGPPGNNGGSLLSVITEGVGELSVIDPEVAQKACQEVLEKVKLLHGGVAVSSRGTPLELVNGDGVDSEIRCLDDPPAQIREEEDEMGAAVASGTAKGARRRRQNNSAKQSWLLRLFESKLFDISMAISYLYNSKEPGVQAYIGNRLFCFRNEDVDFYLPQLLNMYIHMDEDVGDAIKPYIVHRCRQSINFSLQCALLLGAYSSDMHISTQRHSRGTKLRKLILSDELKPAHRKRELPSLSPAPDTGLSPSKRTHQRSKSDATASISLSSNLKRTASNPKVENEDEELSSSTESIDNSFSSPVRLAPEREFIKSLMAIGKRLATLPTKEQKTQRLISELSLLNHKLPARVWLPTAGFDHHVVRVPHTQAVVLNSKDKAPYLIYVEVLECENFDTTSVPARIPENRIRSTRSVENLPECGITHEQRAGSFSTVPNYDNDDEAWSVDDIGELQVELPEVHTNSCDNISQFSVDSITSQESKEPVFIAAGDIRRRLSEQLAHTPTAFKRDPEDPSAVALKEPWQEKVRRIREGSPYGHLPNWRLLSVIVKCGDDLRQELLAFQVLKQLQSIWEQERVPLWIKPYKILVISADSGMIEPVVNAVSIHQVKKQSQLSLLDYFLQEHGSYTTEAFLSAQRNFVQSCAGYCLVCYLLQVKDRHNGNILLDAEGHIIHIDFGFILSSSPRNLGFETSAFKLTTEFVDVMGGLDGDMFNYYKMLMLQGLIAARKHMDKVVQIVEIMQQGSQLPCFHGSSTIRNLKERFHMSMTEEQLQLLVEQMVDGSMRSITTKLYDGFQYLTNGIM
UniProt Q9NXE4: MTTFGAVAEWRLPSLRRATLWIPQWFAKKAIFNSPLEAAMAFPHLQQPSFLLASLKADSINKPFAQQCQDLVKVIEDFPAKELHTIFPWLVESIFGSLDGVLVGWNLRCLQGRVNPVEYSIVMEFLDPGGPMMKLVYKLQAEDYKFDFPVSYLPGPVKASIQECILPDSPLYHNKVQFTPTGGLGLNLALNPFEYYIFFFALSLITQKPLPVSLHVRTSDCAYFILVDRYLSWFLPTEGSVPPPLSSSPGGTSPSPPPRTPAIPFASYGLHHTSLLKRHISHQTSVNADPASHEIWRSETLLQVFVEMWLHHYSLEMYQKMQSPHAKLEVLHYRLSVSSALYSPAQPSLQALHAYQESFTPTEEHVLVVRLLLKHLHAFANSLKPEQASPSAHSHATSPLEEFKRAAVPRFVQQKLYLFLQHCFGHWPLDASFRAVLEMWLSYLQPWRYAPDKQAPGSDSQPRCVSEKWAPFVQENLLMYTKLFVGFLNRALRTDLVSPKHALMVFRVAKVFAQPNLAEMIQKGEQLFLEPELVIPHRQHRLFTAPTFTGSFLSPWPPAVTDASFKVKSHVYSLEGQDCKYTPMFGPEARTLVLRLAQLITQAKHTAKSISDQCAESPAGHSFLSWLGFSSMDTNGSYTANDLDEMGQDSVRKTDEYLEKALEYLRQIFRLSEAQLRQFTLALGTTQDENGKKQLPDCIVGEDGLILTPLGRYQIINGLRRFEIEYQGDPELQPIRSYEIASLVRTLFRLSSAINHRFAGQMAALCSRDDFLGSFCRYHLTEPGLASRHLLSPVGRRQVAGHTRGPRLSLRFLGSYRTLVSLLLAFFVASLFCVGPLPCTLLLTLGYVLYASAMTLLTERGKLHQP
UniProt Q9NYM9: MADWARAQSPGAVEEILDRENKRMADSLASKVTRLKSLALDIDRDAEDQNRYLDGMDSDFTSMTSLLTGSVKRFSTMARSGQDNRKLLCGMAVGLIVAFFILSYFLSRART
UniProt Q9NX74: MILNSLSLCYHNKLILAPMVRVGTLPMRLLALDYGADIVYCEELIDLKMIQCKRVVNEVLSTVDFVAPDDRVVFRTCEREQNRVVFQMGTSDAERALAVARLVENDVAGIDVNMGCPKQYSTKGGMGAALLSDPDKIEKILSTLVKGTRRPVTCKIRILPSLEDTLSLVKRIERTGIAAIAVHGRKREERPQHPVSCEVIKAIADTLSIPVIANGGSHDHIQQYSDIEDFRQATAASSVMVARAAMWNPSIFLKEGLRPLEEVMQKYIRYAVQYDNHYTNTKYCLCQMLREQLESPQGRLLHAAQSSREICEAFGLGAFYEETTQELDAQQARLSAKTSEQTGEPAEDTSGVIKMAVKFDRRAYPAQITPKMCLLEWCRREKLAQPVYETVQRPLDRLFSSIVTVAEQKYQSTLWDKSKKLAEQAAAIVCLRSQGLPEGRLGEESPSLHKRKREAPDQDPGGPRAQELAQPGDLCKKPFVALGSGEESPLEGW
UniProt Q9NZI5: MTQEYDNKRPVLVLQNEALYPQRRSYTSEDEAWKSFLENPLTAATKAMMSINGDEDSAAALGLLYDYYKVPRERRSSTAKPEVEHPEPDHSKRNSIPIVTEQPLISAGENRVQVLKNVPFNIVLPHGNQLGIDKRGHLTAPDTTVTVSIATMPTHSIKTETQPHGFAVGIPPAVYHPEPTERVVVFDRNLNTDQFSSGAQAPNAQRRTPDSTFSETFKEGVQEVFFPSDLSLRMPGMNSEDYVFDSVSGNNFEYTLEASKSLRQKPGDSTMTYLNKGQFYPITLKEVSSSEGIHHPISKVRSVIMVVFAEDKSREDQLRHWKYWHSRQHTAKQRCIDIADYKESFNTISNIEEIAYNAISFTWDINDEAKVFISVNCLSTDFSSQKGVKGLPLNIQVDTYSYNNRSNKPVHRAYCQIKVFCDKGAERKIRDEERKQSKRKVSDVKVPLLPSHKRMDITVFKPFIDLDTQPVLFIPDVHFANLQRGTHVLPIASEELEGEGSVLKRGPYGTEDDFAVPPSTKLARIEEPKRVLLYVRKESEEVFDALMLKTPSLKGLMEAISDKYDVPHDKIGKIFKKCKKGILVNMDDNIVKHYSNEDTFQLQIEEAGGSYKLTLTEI
UniProt Q9NXV2: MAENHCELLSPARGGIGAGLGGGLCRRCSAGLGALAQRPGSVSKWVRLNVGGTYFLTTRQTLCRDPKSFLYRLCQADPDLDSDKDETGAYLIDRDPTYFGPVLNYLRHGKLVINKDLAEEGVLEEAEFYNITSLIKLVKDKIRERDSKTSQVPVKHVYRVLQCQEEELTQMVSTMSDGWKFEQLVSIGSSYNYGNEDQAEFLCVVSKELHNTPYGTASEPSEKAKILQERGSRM
UniProt Q9NZ72: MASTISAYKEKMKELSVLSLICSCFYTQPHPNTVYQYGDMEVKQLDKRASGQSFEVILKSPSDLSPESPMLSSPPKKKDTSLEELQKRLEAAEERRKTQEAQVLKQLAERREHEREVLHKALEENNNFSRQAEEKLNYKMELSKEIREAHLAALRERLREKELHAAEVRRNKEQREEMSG

compound: Cc1nc(Nc2ncc(C(=O)Nc3c(C)cccc3Cl)s2)cc(N2CCN(CCO)CC2)n1 [dasatinib]; assay: log2 fold change of tryptic peptide abundance, ligand vs vehicle (limited proteolysis) (log2 ratio); higher = more trypsin-susceptible (destabilized); conditions: ligand concentration: 5 uM; sample: K562 cleared lysate

Target	log2 fold change
USE1 (peptide sequence: ALANQFLAPGRVPTTAR, peptide start residue: 84) (UniProt Q9NZ43)	0.212
UniProt Q9NZV7 (peptide sequence: EVMLENYR, peptide start residue: 51)	-0.0114
DDIT4 (peptide sequence: LAYSEPCGLR, peptide start residue: 134) (UniProt Q9NX09)	-0.0705
SACS (peptide sequence: FYTSWNQEATSHK, peptide start residue: 4397) (UniProt Q9NZJ4)	0.3
PHRF1 (peptide sequence: RPVHSSCIPSVLKPVEPSLGLLR, peptide start residue: 401) (UniProt Q9P1Y6)	0.622
GAR1 (peptide sequence: FYIDPYK, peptide start residue: 144) (UniProt Q9NY12)	-0.0635
CCDC88C (peptide sequence: SWPSELGSR, peptide start residue: 1510) (UniProt Q9P219)	0.317
KIAA1522 (peptide sequence: RSTVLGLPQHVQK, peptide start residue: 160) (UniProt Q9P206)	-0.334
MBD2 (peptide sequence: AFIVTDEDIRKQEER, peptide start residue: 361) (UniProt Q9UBB5)	-0.445
UniProt Q9UBS9 (peptide sequence: EGPINAESLGK, peptide start residue: 63)	0.0859
THYN1 (peptide sequence: TKTENSGEALAKVEDSNPQK, peptide start residue: 23) (UniProt Q9P016)	0.154
ACTR3B (peptide sequence: HNPVFGVMS, peptide start residue: 410) (UniProt Q9P1U1)	-0.411
AATF (peptide sequence: SILTQIDHILMDKER, peptide start residue: 391) (UniProt Q9NY61)	-0.417
TRNAU1AP (peptide sequence: VVLDQTGVSK, peptide start residue: 128) (UniProt Q9NX07)	-0.146
UniProt Q9UBF8 (peptide sequence: RLSEQLAHTPTAFK, peptide start residue: 509)	-0.472
UniProt Q9NXF7 (peptide sequence: YSTTWKPLNPNSWLYHAK, peptide start residue: 62)	0.44
ATXN10 (peptide sequence: ALTALFKEQR, peptide start residue: 28) (UniProt Q9UBB4)	0.336
SMPD4 (peptide sequence: DDFLGSFCR, peptide start residue: 769) (UniProt Q9NXE4)	-0.33
EIF2AK4 (peptide sequence: LHHENIVR, peptide start residue: 643) (UniProt Q9P2K8)	-0.201

Target	log2 fold change
UniProt Q9P2Q2 (peptide sequence: NDYDKSPIKPK, peptide start residue: 599)	-0.7
UniProt Q9P0J6 (peptide sequence: CKDCYLVK, peptide start residue: 76)	-0.0537
RCOR3 (peptide sequence: IPEFDPGATK, peptide start residue: 11) (UniProt Q9P2K3)	-0.129
UniProt Q9UBD5 (peptide sequence: IALHTALNNPYYYLK, peptide start residue: 597)	0.0921
NXF1 (peptide sequence: AKGEIPEVAFMK, peptide start residue: 608) (UniProt Q9UBU9)	0.691
DAXX (peptide sequence: KQTGSGPLGNSYVER, peptide start residue: 637) (UniProt Q9UER7)	-0.13
BET1L (peptide sequence: AQSPGAVEEILDRENKR, peptide start residue: 7) (UniProt Q9NYM9)	-0.202
UniProt Q9NX74 (peptide sequence: AQELAQPGDLCK, peptide start residue: 465)	0.0934
UniProt Q9NZI5 (peptide sequence: RPVLVLQNEALYPQRR, peptide start residue: 9)	0.887
RERE (peptide sequence: MASLTSDPLAR, peptide start residue: 1406) (UniProt Q9P2R6)	-0.116
TXNL4B (peptide sequence: VDYGSPDHTK, peptide start residue: 92) (UniProt Q9NX01)	0.26
EURL (peptide sequence: KINWIVQYAQNK, peptide start residue: 93) (UniProt Q9NYK6)	0.752
ZNF629 (peptide sequence: GNSYPGAAEGR, peptide start residue: 623) (UniProt Q9UEG4)	-0.183
HECW2 (peptide sequence: ENILPHSTSR, peptide start residue: 901) (UniProt Q9P2P5)	-0.425
KCTD5 (peptide sequence: GGIGAGLGGGLCR, peptide start residue: 14) (UniProt Q9NXV2)	-0.492
UCKL1 (peptide sequence: GSGNTVAIDLIVQHVHSQLEER, peptide start residue: 282) (UniProt Q9NWZ5)	-0.337
STMN3 (peptide sequence: RLEAAEER, peptide start residue: 88) (UniProt Q9NZ72)	0.286
TBC1D14 (peptide sequence: LDKHNDLGWK, peptide start residue: 252) (UniProt Q9P2M4)	-0.655

A few values from the list.
Entry of DAXX (peptide sequence: KQTGSGPLGNSYVER, peptide start residue: 637) (UniProt Q9UER7) under log2 fold change: -0.13
Entry of UniProt Q9NZI5 (peptide sequence: RPVLVLQNEALYPQRR, peptide start residue: 9) under log2 fold change: 0.887
Entry of ATXN10 (peptide sequence: ALTALFKEQR, peptide start residue: 28) (UniProt Q9UBB4) under log2 fold change: 0.336
